# Experimental data reported in the supplement of paper PMC12819154, “High-throughput peptide-centric local stability assay extends protein–ligand identification to membrane proteins, tissues and bacteria” (Nature Structural & Molecular Biology, 2025).
# Amino acid sequences for entries named in this document (tags omitted). A change or cut given only in a name is not applied to a line headed by its entry.
# UniProt Q8WUR0: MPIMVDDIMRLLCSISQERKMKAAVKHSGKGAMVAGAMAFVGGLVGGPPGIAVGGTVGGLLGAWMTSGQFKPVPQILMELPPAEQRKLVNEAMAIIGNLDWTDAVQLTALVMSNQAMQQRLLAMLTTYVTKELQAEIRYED
# UniProt Q91VV4: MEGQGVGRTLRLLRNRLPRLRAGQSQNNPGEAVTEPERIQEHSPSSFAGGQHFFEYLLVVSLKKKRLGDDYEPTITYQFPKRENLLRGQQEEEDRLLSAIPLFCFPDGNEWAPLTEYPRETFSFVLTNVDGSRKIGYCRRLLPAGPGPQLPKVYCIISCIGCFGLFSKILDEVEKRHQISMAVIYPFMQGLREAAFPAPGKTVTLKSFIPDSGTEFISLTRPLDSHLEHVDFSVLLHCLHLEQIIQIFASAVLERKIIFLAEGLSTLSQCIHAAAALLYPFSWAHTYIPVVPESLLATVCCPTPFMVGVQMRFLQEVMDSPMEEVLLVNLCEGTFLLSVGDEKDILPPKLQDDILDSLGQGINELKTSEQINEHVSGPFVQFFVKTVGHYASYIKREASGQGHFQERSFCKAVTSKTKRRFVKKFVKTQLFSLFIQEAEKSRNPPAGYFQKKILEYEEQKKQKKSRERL
# UniProt Q8VIJ8: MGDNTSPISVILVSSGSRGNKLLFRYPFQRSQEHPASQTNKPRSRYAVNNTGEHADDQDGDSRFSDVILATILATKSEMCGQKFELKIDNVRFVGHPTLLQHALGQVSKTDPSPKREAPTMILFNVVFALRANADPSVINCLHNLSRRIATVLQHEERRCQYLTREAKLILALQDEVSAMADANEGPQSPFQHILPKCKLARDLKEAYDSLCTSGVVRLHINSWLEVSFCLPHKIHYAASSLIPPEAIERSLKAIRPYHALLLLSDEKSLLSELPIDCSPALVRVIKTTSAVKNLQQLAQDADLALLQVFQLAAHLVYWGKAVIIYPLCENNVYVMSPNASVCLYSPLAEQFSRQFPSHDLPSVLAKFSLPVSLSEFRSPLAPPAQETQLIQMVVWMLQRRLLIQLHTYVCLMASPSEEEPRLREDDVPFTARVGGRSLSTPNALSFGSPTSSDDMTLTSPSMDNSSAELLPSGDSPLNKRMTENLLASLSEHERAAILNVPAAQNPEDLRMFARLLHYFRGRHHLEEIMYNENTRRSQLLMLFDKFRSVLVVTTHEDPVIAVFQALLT
# UniProt Q91Z96: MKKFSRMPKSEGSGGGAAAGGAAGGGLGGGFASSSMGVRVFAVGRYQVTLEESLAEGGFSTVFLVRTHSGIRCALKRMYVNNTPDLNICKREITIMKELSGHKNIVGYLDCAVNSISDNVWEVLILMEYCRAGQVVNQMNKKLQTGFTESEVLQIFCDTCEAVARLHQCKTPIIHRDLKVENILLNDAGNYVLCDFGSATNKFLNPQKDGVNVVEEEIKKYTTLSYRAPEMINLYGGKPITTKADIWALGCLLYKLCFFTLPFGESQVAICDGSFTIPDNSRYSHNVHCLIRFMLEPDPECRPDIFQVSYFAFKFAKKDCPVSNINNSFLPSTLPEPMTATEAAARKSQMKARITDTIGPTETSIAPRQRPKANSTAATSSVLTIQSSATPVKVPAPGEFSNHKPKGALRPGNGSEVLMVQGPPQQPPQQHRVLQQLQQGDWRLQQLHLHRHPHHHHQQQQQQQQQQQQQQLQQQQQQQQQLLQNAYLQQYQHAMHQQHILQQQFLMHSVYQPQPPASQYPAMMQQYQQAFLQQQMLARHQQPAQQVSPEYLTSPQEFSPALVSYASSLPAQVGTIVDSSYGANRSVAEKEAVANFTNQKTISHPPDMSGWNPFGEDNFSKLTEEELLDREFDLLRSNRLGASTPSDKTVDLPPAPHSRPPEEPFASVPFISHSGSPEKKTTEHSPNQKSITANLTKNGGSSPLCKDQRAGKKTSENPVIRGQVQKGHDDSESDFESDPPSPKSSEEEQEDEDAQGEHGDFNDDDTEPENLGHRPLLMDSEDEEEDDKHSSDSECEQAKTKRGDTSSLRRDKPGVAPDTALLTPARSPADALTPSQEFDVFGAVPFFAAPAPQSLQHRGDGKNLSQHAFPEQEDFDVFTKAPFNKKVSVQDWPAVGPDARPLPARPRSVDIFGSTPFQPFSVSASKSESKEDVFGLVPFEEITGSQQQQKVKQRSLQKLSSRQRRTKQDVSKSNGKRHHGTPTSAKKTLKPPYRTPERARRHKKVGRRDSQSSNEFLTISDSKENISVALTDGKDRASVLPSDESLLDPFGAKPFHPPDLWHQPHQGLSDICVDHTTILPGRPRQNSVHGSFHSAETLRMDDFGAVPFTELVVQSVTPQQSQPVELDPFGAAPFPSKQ
# UniProt Q91WU0: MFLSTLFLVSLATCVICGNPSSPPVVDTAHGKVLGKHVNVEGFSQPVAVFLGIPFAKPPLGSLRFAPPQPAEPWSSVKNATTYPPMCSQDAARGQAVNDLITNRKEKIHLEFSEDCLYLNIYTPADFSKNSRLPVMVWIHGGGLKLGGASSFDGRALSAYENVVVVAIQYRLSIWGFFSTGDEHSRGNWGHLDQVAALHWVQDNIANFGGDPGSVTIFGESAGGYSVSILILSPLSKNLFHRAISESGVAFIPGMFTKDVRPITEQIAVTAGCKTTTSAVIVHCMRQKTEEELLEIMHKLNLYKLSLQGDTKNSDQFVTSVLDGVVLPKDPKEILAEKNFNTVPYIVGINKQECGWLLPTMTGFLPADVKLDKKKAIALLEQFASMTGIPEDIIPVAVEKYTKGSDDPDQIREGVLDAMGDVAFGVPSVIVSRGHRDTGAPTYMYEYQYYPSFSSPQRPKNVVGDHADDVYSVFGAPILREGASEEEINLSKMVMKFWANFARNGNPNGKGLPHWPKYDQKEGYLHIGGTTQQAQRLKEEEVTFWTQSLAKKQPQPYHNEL
# UniProt Q91WK2, whole entry: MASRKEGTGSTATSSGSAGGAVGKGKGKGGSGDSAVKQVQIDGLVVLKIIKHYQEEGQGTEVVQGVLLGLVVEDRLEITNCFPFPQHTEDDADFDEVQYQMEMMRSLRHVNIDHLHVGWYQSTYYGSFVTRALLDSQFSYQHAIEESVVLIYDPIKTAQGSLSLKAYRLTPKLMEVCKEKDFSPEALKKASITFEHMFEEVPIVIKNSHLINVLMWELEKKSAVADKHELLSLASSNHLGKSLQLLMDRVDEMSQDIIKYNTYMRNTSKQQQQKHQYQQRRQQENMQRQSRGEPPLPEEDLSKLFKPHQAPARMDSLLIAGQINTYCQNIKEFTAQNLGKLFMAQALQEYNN
# UniProt Q91VN1: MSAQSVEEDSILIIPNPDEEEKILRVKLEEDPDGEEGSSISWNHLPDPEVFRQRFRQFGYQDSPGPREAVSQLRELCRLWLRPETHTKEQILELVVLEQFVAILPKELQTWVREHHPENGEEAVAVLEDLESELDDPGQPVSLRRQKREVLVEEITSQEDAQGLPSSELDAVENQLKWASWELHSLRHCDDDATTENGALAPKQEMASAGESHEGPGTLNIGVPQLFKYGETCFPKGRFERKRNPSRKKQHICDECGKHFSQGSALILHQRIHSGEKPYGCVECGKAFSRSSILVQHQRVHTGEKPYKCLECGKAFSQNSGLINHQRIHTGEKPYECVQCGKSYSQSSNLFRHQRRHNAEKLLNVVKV
# UniProt Q91XC8: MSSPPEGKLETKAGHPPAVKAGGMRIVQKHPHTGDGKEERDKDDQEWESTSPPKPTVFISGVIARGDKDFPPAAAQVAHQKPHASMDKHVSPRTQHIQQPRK
# UniProt Q91WK5: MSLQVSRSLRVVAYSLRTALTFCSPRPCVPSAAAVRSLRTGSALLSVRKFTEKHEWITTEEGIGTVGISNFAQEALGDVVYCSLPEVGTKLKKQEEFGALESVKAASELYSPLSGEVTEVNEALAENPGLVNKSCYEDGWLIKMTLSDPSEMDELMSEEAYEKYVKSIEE
# UniProt Q91VX2: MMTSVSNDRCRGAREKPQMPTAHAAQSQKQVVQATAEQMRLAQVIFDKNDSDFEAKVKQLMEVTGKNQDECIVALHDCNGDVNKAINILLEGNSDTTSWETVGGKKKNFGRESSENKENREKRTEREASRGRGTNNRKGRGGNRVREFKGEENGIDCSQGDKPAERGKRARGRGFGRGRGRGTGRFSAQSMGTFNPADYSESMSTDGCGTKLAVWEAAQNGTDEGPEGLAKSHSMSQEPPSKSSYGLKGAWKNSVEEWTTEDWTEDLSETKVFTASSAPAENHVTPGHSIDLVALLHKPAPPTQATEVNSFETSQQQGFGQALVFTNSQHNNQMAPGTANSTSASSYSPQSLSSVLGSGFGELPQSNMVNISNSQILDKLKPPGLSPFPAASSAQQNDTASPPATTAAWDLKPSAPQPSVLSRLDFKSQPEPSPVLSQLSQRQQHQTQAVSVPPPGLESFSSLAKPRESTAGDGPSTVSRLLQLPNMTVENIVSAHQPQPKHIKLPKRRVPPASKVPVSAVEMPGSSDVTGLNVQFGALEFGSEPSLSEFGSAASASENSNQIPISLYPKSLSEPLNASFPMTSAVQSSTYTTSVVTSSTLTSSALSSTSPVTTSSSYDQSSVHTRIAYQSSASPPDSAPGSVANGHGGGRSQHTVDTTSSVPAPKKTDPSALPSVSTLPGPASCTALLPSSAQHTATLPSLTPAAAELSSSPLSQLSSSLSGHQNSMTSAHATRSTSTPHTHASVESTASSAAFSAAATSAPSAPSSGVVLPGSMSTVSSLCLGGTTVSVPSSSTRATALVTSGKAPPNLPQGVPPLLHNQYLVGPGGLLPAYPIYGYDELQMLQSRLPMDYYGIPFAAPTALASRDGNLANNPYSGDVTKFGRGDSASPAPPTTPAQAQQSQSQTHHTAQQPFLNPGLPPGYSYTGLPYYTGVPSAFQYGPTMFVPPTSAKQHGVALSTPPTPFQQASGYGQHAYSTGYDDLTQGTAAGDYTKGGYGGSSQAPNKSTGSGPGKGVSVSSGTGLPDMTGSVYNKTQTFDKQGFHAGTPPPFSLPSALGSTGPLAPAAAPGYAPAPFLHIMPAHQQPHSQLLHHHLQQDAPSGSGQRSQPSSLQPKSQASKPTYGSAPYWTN
# UniProt Q91XE8: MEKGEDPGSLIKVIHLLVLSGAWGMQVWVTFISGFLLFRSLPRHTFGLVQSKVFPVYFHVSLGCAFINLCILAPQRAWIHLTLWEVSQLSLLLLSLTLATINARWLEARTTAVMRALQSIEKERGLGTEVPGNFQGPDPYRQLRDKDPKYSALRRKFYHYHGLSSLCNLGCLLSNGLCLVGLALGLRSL
# UniProt Q91V83, whole entry: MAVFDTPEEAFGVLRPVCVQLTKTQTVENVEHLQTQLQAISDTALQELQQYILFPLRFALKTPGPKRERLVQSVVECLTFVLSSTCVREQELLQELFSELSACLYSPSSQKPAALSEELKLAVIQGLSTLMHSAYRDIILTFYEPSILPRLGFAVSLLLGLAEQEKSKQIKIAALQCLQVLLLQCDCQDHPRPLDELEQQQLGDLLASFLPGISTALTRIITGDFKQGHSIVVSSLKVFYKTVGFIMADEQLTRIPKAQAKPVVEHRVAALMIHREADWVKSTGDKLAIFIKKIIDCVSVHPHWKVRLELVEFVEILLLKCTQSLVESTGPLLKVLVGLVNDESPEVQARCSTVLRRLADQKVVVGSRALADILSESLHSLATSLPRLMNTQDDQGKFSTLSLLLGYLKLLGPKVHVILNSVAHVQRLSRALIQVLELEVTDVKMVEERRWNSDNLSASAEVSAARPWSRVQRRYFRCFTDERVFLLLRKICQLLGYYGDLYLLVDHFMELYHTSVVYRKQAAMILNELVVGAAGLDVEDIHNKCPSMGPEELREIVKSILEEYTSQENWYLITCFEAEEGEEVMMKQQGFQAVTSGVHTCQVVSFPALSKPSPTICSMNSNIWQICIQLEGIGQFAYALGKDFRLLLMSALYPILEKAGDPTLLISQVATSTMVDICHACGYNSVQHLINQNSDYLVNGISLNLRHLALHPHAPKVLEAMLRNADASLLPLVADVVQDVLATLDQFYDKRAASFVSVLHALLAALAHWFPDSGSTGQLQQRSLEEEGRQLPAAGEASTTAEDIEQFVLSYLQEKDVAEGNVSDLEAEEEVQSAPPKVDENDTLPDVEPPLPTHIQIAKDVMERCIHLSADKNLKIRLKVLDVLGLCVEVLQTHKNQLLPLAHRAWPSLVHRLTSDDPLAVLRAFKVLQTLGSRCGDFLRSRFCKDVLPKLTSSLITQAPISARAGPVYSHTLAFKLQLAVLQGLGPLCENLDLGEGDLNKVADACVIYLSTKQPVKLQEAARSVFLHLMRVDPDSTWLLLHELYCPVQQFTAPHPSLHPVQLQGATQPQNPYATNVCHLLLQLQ
# UniProt Q91VE6: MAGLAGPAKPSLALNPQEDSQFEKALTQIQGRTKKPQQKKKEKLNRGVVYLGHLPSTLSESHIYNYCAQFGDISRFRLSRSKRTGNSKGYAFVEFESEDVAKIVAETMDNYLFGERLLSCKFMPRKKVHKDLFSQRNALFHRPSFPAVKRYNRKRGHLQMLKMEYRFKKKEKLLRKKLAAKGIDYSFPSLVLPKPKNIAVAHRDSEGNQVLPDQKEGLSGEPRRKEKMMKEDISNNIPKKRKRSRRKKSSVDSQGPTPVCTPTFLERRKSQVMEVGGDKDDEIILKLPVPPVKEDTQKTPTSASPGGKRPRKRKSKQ
# Some of the results follow. Most values lie at the level of the controls, where differences are scatter.
# Compound: CN[C@@H]1C[C@H]2O[C@@](C)([C@@H]1OC)n1c3ccccc3c3c4c(c5c6ccccc6n2c5c31)C(=O)NC4 [staurosporine]
# Assay: log2 fold change of tryptic peptide abundance, ligand vs vehicle (limited proteolysis) (log2 ratio); higher = more trypsin-susceptible (destabilized)
# Conditions: ligand concentration: 20 uM; sample: mouse liver crude lysate; replicate design: treated separately
row,Target,log2 fold change
1,"UniProt Q8VHK9 (peptide sequence: EIGLWYAK, peptide start residue: 54)",0.109
2,"UniProt Q8WUR0 (peptide sequence: PIMVDDIMR, peptide start residue: 2)",0.0815
3,"UniProt Q91VV4 (peptide sequence: ILEYEEQKK, peptide start residue: 453)",-0.372
4,"UniProt Q91WM3 (peptide sequence: LYLEQLR, peptide start residue: 85)",-0.097
5,"UniProt Q91YE8 (peptide sequence: QKTPPPVAPKPAVK, peptide start residue: 742)",-0.215
6,"UniProt Q91XY4 (peptide sequence: QNVYIPGSNATLTNAAGKR, peptide start residue: 891)",0.113
7,"UniProt Q8VHL1 (peptide sequence: AFQATQQK, peptide start residue: 359)",-0.0925
8,"UniProt Q8VID5 (peptide sequence: YDEGSGGSGDEGRDEAHKR, peptide start residue: 485)",1.1
9,"UniProt Q91ZR2 (peptide sequence: HFDWLYAR, peptide start residue: 305)",0.308
10,"UniProt Q91X20 (peptide sequence: SLPDTYKDK, peptide start residue: 496)",-0.147
11,"UniProt Q91YY2 (peptide sequence: GNEENPHRFDLLVR, peptide start residue: 298)",-0.299
12,"UniProt Q91YM2 (peptide sequence: KKEEDQASQGYK, peptide start residue: 1188)",-1.13
13,"UniProt Q8VIJ8 (peptide sequence: MTENLLASLSEHER, peptide start residue: 482)",-0.495
14,"UniProt Q91Z96 (peptide sequence: LTEEELLDREFDLLR, peptide start residue: 622)",0.29
15,"UniProt Q91X58 (peptide sequence: AVGEHIDR, peptide start residue: 75)",-0.126
16,"UniProt Q91WG0 (peptide sequence: AGVHTFLGIPFAKPPVGPLR, peptide start residue: 55)",-0.321
17,"UniProt Q91WU0 (peptide sequence: GSDDPDQIR, peptide start residue: 404)",-0.334
18,"UniProt Q91YQ5 (peptide sequence: TEGSDLCDRVSEMQK, peptide start residue: 540)",-0.32

# Another view of some results above.
row | Target | log2 fold change
9 | UniProt Q91ZR2 (peptide sequence: HFDWLYAR, peptide start residue: 305) | 0.308
10 | UniProt Q91X20 (peptide sequence: SLPDTYKDK, peptide start residue: 496) | -0.147

# Further records follow.

row,Target,log2 fold change
1,"UniProt Q91WK2 (peptide sequence: VDEMSQDIIK, peptide start residue: 250)",0.332
2,"UniProt Q91VN1 (peptide sequence: IHSGEKPYGCVECGK, peptide start residue: 272)",0.275
3,"UniProt Q91WJ7 (peptide sequence: RFNPQYHNRLNGPAK, peptide start residue: 437)",0.117
4,"UniProt Q91XC8 (peptide sequence: IVQKHPHTGDGKEER, peptide start residue: 26)",-0.0745
5,"UniProt Q91ZS8 (peptide sequence: NPVMILNELRPGLK, peptide start residue: 235)",0.215
6,"UniProt Q91W90 (peptide sequence: FFAPWCGHCK, peptide start residue: 198)",-0.583
7,"UniProt Q91W96 (peptide sequence: GKYFNVER, peptide start residue: 467)",-0.333
8,"UniProt Q91Z58 (peptide sequence: ELQNHPAK, peptide start residue: 818)",0.599
9,"UniProt Q91WK5 (peptide sequence: SCYEDGWLIK, peptide start residue: 134)",-0.477
10,"UniProt Q91VX2 (peptide sequence: ESTAGDGPSTVSR, peptide start residue: 468)",0.0799
11,"UniProt Q91XE8 (peptide sequence: HTFGLVQSK, peptide start residue: 44)",-0.419
12,"UniProt Q91VJ5 (peptide sequence: AFDKADREEGK, peptide start residue: 162)",-0.66
13,"UniProt Q91VM5 (peptide sequence: DRDYSDHPSGGSYR, peptide start residue: 266)",0.138
14,"UniProt Q91W61 (peptide sequence: ALVQLHLAR, peptide start residue: 53)",0.397
15,"UniProt Q91WT4 (peptide sequence: VKLDLEAR, peptide start residue: 96)",0.399
16,"UniProt Q91YI6 (peptide sequence: TYAYLENR, peptide start residue: 296)",-0.484
17,"UniProt Q91V83 (peptide sequence: VHVILNSVAHVQR, peptide start residue: 415)",1.28
18,"UniProt Q91VE6 (peptide sequence: ALTQIQGR, peptide start residue: 25)",-0.149
